Assay [1] has as its target Kluyveromyces lactis SHE4, wildtype (Kluyveromyces lactis). Description: crystal structure; SHE4 co-crystallised with the Myo4 561-581 peptide; 0.1 M bicine/Trizma base pH 8.5, 10% PEG 20000, 20% PEG MME 550; 2.4 Å; both purified.
The target in assay [2] is Kluyveromyces lactis SHE4 N475A (Kluyveromyces lactis). The assay is described as follows: condition: 10 μM SHE4 in the cell, 107 μM myosin peptide in the syringe; ITC; 25 °C, VP-ITC; 10 μM SHE4 in the cell, 90 μM (N475A: 107 μM) peptide in the syringe; 10 mM HEPES pH 8.0, 150 mM NaCl, 1 mM TCEP; single site model; both purified.

No constants are given. Whether binding was seen depends on the method and setting. For some assays here: Binding can be weak; no strength is given.

Turning to WKFIVSHYAVDVEYEVEGFIEK (peptide, UniProt P32492 561-581) [Myo4 peptide (residues 561–581)], the binding result in assay [1] is recorded as “binds”.

B1: Myo4 peptide (residues 561–573) (peptide)
peptide: WKFIVSHYAVDVEY
notes: tryptophan introduced at the N-terminus for peptide quantification; also called myosin peptide; core of the myosin motif; source: synthetic peptide (in-house, HPLC purified)
In the case of B1, the binding entry in assay [2] was “no binding”.

These data come from paper PMC11272940, “UNC-45 assisted myosin folding depends on a conserved FX3HY motif implicated in Freeman Sheldon Syndrome” (Nature Communications, 2024).
